No constants are given. Whether binding was seen depends on the method and setting. Some binding calls cover weakened binding; strength is not graded here. Tags and fused reporters may be left off the sequences shown.
Target: T1, full length human CDH11 C-terminally tagged with GFP, expressed on Expi293F cells (human) (UniProt P55287)
T1 sequence (looked up): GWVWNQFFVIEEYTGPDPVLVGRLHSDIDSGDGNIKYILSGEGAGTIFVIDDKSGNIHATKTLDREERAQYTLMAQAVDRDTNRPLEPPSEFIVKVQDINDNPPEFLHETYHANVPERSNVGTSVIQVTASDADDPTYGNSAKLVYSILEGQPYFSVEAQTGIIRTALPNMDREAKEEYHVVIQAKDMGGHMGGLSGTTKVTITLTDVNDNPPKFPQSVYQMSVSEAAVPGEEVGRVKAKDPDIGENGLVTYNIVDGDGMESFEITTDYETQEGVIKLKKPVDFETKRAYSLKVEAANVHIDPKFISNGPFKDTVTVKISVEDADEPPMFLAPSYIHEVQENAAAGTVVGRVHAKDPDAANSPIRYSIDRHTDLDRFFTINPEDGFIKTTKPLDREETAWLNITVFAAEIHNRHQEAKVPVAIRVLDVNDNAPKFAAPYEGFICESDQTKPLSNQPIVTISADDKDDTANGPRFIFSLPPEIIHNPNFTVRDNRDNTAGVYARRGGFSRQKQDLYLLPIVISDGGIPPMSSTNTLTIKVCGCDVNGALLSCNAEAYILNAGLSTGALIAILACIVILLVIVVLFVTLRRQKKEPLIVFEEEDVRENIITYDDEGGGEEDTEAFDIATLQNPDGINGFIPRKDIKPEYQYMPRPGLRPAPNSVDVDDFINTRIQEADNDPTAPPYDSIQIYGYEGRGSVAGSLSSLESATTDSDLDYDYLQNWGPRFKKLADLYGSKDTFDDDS
Experiment: flow cytometry on transfected Expi293F cells (Fig 14B: 1A1, 2A1, 2D2, 6D5)

binding: binds
B1: anti-CDH11 antibody 1A1 (antibody, V domains shown)
VH: EVQLVESGGGLVQPGGSLRLSCAASGFTFSTFWMSWVRQGPGKGLEWVANIKEDGNEKYYVDSVKGRFTVSRDSDKNSLYLEMNSLRVEDTGLYYCARGSWYGNFQHWGQGTLVTVSS
VL: DIQMTQSPSSLSASVGDRITITCQASQDISNFLNWYQQKPGKAPKLLIYDASNLETGVPSRFSGTGSGTDFTFTISSLQSVDIATYYCQQYDNLPPTFGGGTRVEIK

— patent EP4687981A2
